These are yes or no findings as the source states them, for the method shown. Binding seen in cells or lysates may run through a third protein. A result given as binding can be weak or reduced; the word gives no strength. Tags and fused reporters may be left off the sequences shown. Blank lines part the entries; values can stand above or below the molecule they belong to.
What was measured:
HA-RFP-TMEM16A = target: T1, HA-RFP-TMEM16A (UniProt Q8BHY3); assay: co-IP; MASMCs co-transfected with HA-RFP-TMEM16A and His-p62; immunoprecipitation with HA or His antibody, blot for His or HA
T1 sequence: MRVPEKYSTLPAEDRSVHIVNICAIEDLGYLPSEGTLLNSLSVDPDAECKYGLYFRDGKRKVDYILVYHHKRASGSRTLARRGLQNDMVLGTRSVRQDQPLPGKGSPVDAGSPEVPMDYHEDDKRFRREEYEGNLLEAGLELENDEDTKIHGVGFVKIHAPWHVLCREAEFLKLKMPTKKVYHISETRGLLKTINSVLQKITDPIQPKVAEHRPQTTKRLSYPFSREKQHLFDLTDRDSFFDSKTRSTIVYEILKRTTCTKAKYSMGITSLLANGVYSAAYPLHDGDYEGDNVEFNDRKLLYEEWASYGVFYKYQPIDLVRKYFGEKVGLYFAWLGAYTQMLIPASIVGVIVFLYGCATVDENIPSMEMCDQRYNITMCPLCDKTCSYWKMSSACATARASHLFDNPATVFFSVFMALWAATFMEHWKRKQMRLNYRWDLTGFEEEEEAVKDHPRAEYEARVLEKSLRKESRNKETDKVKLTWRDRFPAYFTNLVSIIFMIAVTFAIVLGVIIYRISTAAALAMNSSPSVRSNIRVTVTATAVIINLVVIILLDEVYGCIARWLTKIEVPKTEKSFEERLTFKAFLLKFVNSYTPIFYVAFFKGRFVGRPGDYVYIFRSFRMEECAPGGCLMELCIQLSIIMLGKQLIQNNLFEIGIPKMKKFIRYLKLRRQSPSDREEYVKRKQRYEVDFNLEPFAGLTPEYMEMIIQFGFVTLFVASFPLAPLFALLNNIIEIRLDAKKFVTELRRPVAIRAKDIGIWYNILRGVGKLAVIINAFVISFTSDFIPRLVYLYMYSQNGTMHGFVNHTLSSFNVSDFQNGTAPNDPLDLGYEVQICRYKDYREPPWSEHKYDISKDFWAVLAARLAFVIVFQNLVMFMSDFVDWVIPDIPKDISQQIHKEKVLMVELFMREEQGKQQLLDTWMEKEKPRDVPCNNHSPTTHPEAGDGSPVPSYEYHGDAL

His-p62 = assay: as above

binding (HA-RFP-TMEM16A): binds
Molecule: His-p62

binding (His-p62): binds
B1: HA-RFP-TMEM16A (protein, UniProt Q8BHY3 1-960)
chain: T1 sequence
